Laboratory results reported in publication doi:10.1101/2022.02.10.480004.
Results are given in words; binding and its absence hold for the method and conditions named. Binding seen in cells or lysates may run through a third protein. Binding calls can cover weak binding; strength is not graded here. Where a sequence is shown, tags or fusion partners need not be part of it.

Target: T1, CFP-tagged wild-type inhibitor-2 (CFP-I-2) (UniProt P41236)
T1 sequence: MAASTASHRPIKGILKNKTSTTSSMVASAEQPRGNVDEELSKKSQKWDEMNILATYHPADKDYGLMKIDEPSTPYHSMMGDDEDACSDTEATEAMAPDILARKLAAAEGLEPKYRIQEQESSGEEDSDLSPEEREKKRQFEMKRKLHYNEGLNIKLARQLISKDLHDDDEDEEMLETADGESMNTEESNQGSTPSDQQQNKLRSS
Test: FRET or BRET

Question: YFP-PP1γ (enzyme) was tested. Which binding did it give?
Answer: The binding was “binds”.
